Data taken from patent publication US20240174637A1, “DEGRADERS OF GRK2 AND USES THEREOF” (Sonata Therapeutics, Inc., priority 2021, published 2024).

Sequences of proteins named here, by UniProt entry; tags and fusion partners are left off.
UniProt P25098, whole entry: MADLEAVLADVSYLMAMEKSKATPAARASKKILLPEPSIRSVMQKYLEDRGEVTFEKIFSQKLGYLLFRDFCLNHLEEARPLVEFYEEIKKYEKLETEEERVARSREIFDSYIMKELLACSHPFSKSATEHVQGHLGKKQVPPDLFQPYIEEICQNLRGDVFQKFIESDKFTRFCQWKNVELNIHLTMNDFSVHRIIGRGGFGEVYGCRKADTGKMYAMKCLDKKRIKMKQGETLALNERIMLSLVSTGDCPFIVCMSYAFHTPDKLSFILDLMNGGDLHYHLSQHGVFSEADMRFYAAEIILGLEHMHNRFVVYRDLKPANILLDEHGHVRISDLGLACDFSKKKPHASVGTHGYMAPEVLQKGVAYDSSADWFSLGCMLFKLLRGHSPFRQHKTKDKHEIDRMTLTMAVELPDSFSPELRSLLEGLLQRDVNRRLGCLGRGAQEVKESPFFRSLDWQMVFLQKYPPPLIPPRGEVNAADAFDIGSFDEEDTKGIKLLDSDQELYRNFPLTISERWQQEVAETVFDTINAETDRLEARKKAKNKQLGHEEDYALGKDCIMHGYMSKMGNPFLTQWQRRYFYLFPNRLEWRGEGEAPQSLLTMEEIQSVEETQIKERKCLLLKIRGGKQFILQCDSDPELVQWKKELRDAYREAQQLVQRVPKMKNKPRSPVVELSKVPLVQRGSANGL

Experiments:
GRK2 [1] = target: T1, GRK2 (Homo sapiens, UniProt P25098); assay: GRK2 Degradation Assay and Western Blot in PAXF1657 cells
Method: General Protocol: Degradation Assay and Western Blot. PAXF1657 cells were plated in 6-well, 24-well plates or 60 mm tissue culture treated dishes and incubated at 37° C. until 70% confluency. The media was aspirated, and the cells were treated with fresh media containing the compounds in the concentration range of 0 μM to 10 μM for a period of 6 to 24 hours. At the desired time points the cells were washed twice with cold PBS and lysed with lysis buffer (ice cold PBS+1% NP40 with 1/100 protease/phosphatase inhibitors) on ice for 8 mins followed by sonication at 70% intensity pulses for 10 seconds. The cells were centrifuged at 20000 g for 8 min at 4° C. The supernatants were collected and stored at −80° C.
Samples were mixed with NuPAGE LDS sample buffer and NuPAGE sample reducing buffer (3×), vortexed and heated at 95° C. for 10 min, and then analyzed by SDS-PAGE (NuPAGE 4-12%) followed by transfer to nitrocellulose membrane. […] The membranes were washed three times with TBST and incubated with GRK2 or R-actin antibodies in 5% milk in TBST at 4° C. overnight. The membranes were washed three times with TBST and incubated with anti-mouse IgG-HRP or anti-rabbit IgG-HRP at room temperature for 2 hours in 5% milk in TBST. The membranes were washed three times with TBST and developed with ECL Dura, ECL femto or ECL atto substrates.

PAXF1657 KO Clone #4 = assay: 7-day cellular proliferation assay (CellTiter-Glo), PAXF1657 KO Clone #4; details: read-out: 7-day proliferation assay: IC50 GeoMean (uM) [Cell Line: PAXF1657 KO Clone #4]
Method: (§1) In order to identify compounds specific for GRK2, we generated two isogenic cell line pairs of the pancreatic cancer cell line PAXF1657, a pair of cells stably overexpressing GRK2 cDNA or the control empty vector and a cell line pair of PAXF1657 GRK2 knockout clonal cells versus non-targeting control clonal cells.
(§2) Proliferation Assay: Cellular anti-proliferative activity of compounds was assessed by using the pancreatic cancer cell line, PAXF1657, stably overexpressing GRK2 cDNA or the control empty vector, as well as the parental urinary bladder cancer cell line, 5637. In addition, we also took advantage of GRK2 knockout cell lines that were generated via CRISPR. Cell lines were seeded into tissue culture treated, white-walled, 96-well plates at a density of 500 cells/well in RPMI1640 media supplemented with 10% H.I. FBS and penicillin/streptomycin. Plates were incubated overnight at 37° C., 5% CO2 to allow cells to adhere to the wells. […] At the time of compound addition, a set of plates, that were not treated with compounds, were collected and cell viability was measured using CellTiter-Glo (Promega). CellTiter-Glo reagent was added to the designed plates and luminescence was measuring using a Biotek Synergy plate reader. […] Cell viability was assessed and at end of the 7-day compound treatment by CellTiterGlo.

GRK2 [2] = target: T1, GRK2; assay: GRK2 Inhibition Assay (TR-FRET, Example 1); details: read-out: Enzymatic GRK2 Assay: IC50 (nM) (Example 1), 7 μM ATP
Method: Assay: GRK2 enzyme (1 nM final concentration) was diluted in 25 mM HEPES, 10 mM MgCl2, 2 mM DTT, 0.01% Tween-20, and 1 mM EGTA. Then the GRK2 mixture was added into ProxiPlate-384 white plate and pre-incubated for 30 min with test compounds at room temperature. ATP (7 μM final concentration) and Ulight TopoIIα (50 nM final concentration) were added into the assay plate to initiate the reaction and the mixture was incubated at room temperature for 90 min. Then, Eu anti-TopoIIα (0.12 nM final concentration), BSA (0.01% final concentration), and EDTA (11 mM final concentration) in LANCE assay buffer were added into each well. After 60 min incubation time at room temperature, TR-FRET signal was measured by EnVision plate reader.

PAXF1657 EV = assay: 7-day cellular proliferation assay (CellTiter-Glo), PAXF1657 EV; details: read-out: 7-day proliferation assay: IC50 GeoMean (uM) [Cell Line: PAXF1657 EV]
Method: as §1, §2

% GRK2 degradation at 1 uM in PAXF1657 EV (24 hrs) (GRK2 [1]; 1 uM): 66%
% GRK2 degradation at 3 uM in PAXF1657 EV (24 hrs) (GRK2 [1]; 3 uM): 70%
IC50 (GRK2 [2]): < 100 nM
Structure (SMILES): CN[C@@H](C)C(=O)N[C@H](C(=O)N1CCC[C@H]1c1nc(C(=O)c2cccc(OCc3cn(CCCCCOc4cccc(CNC(=O)c5cccc(NCc6nnc(-c7ccncn7)n6C)c5)c4)nn3)c2)cs1)C1CCCCC1
IC50 (PAXF1657 KO Clone #4): 1 to 10 µM
IC50 (PAXF1657 EV): 1 to 10 µM

The structures given here were assigned with low confidence; some may be wrong.
